Data from patent US20060099580A1.
These are yes or no findings as the source states them, for the method shown. Some binding calls cover weakened binding; strength is not graded here.

Amino acid sequences for entries named in this document (tags omitted). A change or cut given only in a name is not applied to a line headed by its entry.
UniProt Q92769: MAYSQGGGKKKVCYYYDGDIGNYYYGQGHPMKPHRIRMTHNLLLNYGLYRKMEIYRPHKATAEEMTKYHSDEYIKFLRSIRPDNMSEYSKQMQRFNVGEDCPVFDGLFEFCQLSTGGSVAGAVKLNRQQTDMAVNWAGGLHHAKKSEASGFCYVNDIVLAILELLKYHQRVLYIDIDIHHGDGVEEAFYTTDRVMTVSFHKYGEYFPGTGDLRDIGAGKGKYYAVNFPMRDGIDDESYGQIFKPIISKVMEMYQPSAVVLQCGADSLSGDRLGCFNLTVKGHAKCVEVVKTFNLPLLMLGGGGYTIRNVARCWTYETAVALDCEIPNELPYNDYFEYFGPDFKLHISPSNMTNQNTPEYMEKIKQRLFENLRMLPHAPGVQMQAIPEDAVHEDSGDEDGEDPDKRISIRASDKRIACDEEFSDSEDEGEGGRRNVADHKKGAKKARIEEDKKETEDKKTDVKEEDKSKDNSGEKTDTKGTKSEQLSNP
UniProt A6NE82: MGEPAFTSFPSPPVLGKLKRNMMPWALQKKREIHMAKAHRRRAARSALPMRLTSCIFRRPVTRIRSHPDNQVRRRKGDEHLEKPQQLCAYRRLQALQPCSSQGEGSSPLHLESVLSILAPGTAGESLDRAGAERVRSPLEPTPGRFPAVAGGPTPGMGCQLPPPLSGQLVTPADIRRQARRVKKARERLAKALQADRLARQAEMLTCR
UniProt Q8WWY6: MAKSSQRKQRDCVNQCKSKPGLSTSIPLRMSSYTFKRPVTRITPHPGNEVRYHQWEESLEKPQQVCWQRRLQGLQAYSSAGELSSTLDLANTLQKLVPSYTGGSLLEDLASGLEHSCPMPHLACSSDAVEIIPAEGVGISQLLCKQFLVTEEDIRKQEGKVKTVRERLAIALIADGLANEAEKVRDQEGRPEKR

Columns and labels:
[1] = target: histone deacetylase HDAC2 (UniProt Q92769); test: isolation of HDAC2 complexes (figure legend)
[2] = target: histone deacetylase HDAC2 (UniProt Q92769); test: HDAC2 complexes isolated with constant MBD2 and increasing homolog protein
[3] = target: histone deacetylase HDAC2 (UniProt Q92769); test: isolation of HDAC2 complexes from cells, analysed for associated proteins

Measured: binding

MBD2-C-Terminal Homolog 1 (MBD2-CTH1) (from UniProt A6NE82 1-208)
binds: all assays above

MBD2-C-Terminal Homolog 2 (MBD2-CTH2) (from UniProt Q8WWY6 1-194)
binds: all assays above
